Our source for the binding values is paper PMC12706077.

Amino acid sequences for entries named in this document (tags omitted). Residues count along the entry.
UniProt P40189, residues 23-918: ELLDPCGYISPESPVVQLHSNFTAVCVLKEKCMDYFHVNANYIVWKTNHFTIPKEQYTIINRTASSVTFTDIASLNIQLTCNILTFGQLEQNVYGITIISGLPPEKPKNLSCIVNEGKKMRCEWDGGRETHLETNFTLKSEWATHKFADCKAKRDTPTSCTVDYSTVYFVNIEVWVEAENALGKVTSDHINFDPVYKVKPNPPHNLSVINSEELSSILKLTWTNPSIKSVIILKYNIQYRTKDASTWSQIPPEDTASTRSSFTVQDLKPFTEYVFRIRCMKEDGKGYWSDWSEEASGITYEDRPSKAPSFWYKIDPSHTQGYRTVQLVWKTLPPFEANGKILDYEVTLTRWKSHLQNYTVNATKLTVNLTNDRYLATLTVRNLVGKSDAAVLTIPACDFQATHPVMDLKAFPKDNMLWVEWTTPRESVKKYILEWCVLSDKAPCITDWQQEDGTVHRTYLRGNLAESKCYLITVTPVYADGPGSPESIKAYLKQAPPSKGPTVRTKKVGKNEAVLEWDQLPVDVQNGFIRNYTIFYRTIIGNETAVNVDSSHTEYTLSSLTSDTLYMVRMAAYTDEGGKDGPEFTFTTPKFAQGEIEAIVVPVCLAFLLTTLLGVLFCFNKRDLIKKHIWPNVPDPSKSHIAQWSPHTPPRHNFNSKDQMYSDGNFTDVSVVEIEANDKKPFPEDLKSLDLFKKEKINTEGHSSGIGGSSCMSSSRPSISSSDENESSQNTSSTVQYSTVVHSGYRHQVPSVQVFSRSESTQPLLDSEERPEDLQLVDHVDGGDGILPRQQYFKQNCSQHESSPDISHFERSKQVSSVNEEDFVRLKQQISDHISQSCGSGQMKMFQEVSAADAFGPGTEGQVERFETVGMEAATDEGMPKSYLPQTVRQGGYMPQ

No constants are given. Whether binding was seen depends on the method and setting. Some entries that bind do so weakly or less than the wild type. Sequences can lack the tags named with a protein.

The target in the test is IL6ST (gp130) (human (endogenous in kidney tissue)) (UniProt P40189). The test is described as follows: thermal proteome profiling - proteome integral solubility alteration assay (TPP-PISA); 1 or 10 µM C3-LHF1 added to human kidney tissue lysate (50 mM HEPES pH 7.4/100 mM NaCl/2.5 mM EDTA), 1 h at 37 °C; heat denaturation 5 min at 53/56/59 °C, pooled; soluble proteins by mass spectrometry; n = 3 technical replicates; only the binder purified.

B1: C3-LHF1 (C3, lupus-associated human fragment 1), recombinant, C-terminally His-tagged (domain or fragment)
chain: AEENCFIQKSDDKVTLEERLDKACEPGVDYVYKTRLVKVQLSNDFDEYIMAIEQTIKSGSDEVQVGQQRTFISPIKCREALKLEEKKHYLMWGLSSDFWGEKPNLSYIIGKDTWVEHWPEEDECQDEENQKQCQDLGAFTESMVVFGCPN
With B1, the binding entry is on record as “binds”.
